These are yes or no findings as the source states them, for the method shown.
Biological target: Human Niemann–Pick C1 protein luminal domain C (NPC1-C), nonglycosylated, residues 371–621 (human) (UniProt O15118)
Test: SEC; Superdex 200 16/60; SEC buffer 20 mM MES pH 5.5, 100 mM NaCl; refolded His8-tagged NPC1-C alone; both purified

Protein sequences, listed by entry. Tags and fused reporters are not part of them. Residues count along the entry.
UniProt O15118, residues 371-621: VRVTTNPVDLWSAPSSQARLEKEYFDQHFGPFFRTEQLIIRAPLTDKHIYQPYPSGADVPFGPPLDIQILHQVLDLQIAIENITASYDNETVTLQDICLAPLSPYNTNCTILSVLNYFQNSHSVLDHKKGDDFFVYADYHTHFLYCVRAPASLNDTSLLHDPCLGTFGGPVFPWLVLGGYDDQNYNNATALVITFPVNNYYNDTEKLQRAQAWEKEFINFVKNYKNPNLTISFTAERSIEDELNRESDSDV

Human Niemann–Pick C1 protein luminal domain C (NPC1-C), nonglycosylated, residues 371–621 (from UniProt O15118 371-621) (domain or fragment)
binding: no binding

— publication PMC9903137
